Experimental data: PubChem BioAssay AID1224828 (NIAID, 2016)

- Screen: 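Find genes required for NF-kappaB p65 moving into the nucleus after LPS in mouse macrophages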 (primary screen)
- Cells: mouse RAW264.7 G9 macrophage reporter cells (GFP-p65, Tnf promoter-mCherry)
- Knock-down reagent: siRNA pool against mouse genes, 100 nM
- Time to read-out: 2 days siRNA transfection, then 40 min LPS before fixation
- Challenge: LPS (Salmonella minnesota R595) at 10 ng/ml
- Detection: 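Microscopy ratio of nuclear to perinuclear-ring GFP-p65 signal, scaled to the plate median; gene score is the average of two replicate robust z-scores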
- Reading the numbers: p65 translocation robust z-score: higher = more nuclear NF-kappaB p65 after LPS than the plate median; nuclear/cytoplasmic p65 ratio: higher = more nuclear NF-kappaB p65
- Hit rule: 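Active if robust z is above 3.3 (negative regulators) or below -1.56, the Tlr4 control median (positive regulators); activity score 50 or more; control wells not called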
- Meaning of the calls: active = hit (p65 shift raised or lowered); inactive = no clear change
Shown is a random part of about 17,000 deposited reagents. Of all reagents, 762 (4.5%) were called active. 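Active calls include both raised and lowered p65 entry, mostly lowered; wells with fewer than 50 cells lack a z-score.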 Raw values vary from plate to plate and are shown uncorrected. A number with no mark means an inactive call.

Gene | p65 translocation robust z-score | nuclear/cytoplasmic p65 ratio, rep 1 | nuclear/cytoplasmic p65 ratio, rep 2 | low cell count flag
Timp4 (tissue inhibitor of metalloproteinase 4) | 0.4 | 1.56 | 1.59 | enough cells to score
Plod1 (procollagen-lysine, 2-oxoglutarate 5-dioxygenase 1) | 0.03 | 1.49 | 1.42 | enough cells to score
Gjd2 (gap junction protein, delta 2) | -0.06 | 1.57 | 1.47 | enough cells to score
Oas1a (2'-5' oligoadenylate synthetase 1A) | 0.72 | 1.53 | 1.52 | enough cells to score
Tctn3 (tectonic family member 3) | – | 1.5 | 1.78 | fewer than 50 cells per well; well left out of scoring
Dysf (dysferlin) | 0.73 | 1.66 | 1.4 | enough cells to score
Nell2 (NEL-like 2) | -0.25 | 1.78 | 1.53 | enough cells to score
Fzr1 (fizzy and cell division cycle 20 related 1) | -0.42 | 1.43 | 1.34 | enough cells to score
Mylk2 (myosin, light polypeptide kinase 2, skeletal muscle) | 0.2 | 1.91 | 1.4 | enough cells to score
Or4d1 (olfactory receptor family 4 subfamily D member 1) | 0.17 | 1.62 | 1.53 | enough cells to score
Cpa1 (carboxypeptidase A1, pancreatic) | 0.31 | 1.59 | 1.4 | enough cells to score
Btnl1 (butyrophilin-like 1) | 1.99 | 1.87 | 1.9 | enough cells to score
Arglu1 (arginine and glutamate rich 1) | -0.19 | 1.36 | 1.56 | enough cells to score
Sytl1 (synaptotagmin-like 1) | – | 1.25 | 0.995 | fewer than 50 cells per well; well left out of scoring
Denr (density-regulated protein) | -0.9 | 1.41 | 1.44 | enough cells to score
Lhfpl1 (lipoma HMGIC fusion partner-like 1) | – | 1.87 | 1.49 | fewer than 50 cells per well; well left out of scoring
Zbtb11 (zinc finger and BTB domain containing 11) | -0.53 | 1.41 | 1.41 | enough cells to score
Nubp1 (nucleotide binding protein 1) | – | 1.22 | 1.24 | fewer than 50 cells per well; well left out of scoring
Kcnq2 (potassium voltage-gated channel, subfamily Q, member 2) | -0.15 | 1.44 | 1.38 | enough cells to score
Cyp2a5 (cytochrome P450, family 2, subfamily a, polypeptide 5) | -0.58 | 1.44 | 1.27 | enough cells to score
Oas1f (2'-5' oligoadenylate synthetase 1F) | -0.31 | 1.67 | 1.48 | enough cells to score
Krtap15-1 (keratin associated protein 15-1) | 1.74 | 1.63 | 1.82 | enough cells to score
Gabra5 (gamma-aminobutyric acid type A receptor subunit alpha 5) | -1.59 (active) | 1.21 | 1.18 | enough cells to score
Shmt1 (serine hydroxymethyltransferase 1 (soluble)) | 0.92 | 1.7 | 1.67 | enough cells to score
Zfp202 (zinc finger protein 202) | 1.65 | 1.6 | 1.46 | enough cells to score
Ufsp1 (UFM1-specific peptidase 1) | – | 1.46 | 1.51 | fewer than 50 cells per well; well left out of scoring
Rnasel | -0.23 | 1.67 | 1.33 | enough cells to score
Or13a20 (olfactory receptor family 13 subfamily A member 20) | 0.68 | 1.91 | 1.68 | enough cells to score
Ppp1r17 (protein phosphatase 1, regulatory subunit 17) | -0.54 | 1.58 | 1.32 | enough cells to score
Kcnh3 | 0.55 | 1.54 | 1.46 | enough cells to score
Cmtm5 (CKLF-like MARVEL transmembrane domain containing 5) | 0.76 | 1.7 | 1.91 | enough cells to score
Wee2 (WEE1 homolog 2 (S. pombe)) | – | 1.16 | 1.44 | fewer than 50 cells per well; well left out of scoring
Npy4r (neuropeptide Y receptor Y4) | -0.37 | 1.51 | 1.48 | enough cells to score
Krtap5-2 (keratin associated protein 5-2) | – | 1.19 | 1.4 | fewer than 50 cells per well; well left out of scoring
Msantd1 (Myb/SANT-like DNA-binding domain containing 1) | -1.72 (active) | 1.28 | 1.29 | enough cells to score
Comt (catechol-O-methyltransferase) | 0.01 | 1.48 | 1.38 | enough cells to score
Hectd2 (HECT domain E3 ubiquitin protein ligase 2) | -0.29 | 1.61 | 1.5 | enough cells to score
Mypn (myopalladin) | -1.78 (active) | 1.31 | 1.19 | enough cells to score
Cep43 (centrosomal protein 43) | -0.2 | 1.44 | 1.32 | enough cells to score
Ica1l (islet cell autoantigen 1-like) | -2.63 (active) | 1.1 | 1.03 | enough cells to score
Or5b21 (olfactory receptor family 5 subfamily B member 21) | – | 1.43 | 1.28 | fewer than 50 cells per well; well left out of scoring
Cox6a1 (cytochrome c oxidase subunit 6A1) | 0.19 | 1.55 | 1.87 | enough cells to score
Pkd1l3 (polycystic kidney disease 1 like 3) | 0.08 | 1.44 | 1.18 | enough cells to score
Psmd4 (proteasome (prosome, macropain) 26S subunit, non-ATPase, 4) | -0.65 | 1.41 | 1.32 | enough cells to score
Vmn1r234 (vomeronasal 1 receptor 234) | – | 1.66 | 1.41 | fewer than 50 cells per well; well left out of scoring
Zfp87 (zinc finger protein 87) | 1.12 | 1.17 | 1.38 | enough cells to score
Psmb1 (proteasome (prosome, macropain) subunit, beta type 1) | – | 1.43 | 0.914 | fewer than 50 cells per well; well left out of scoring
Mbd2 (methyl-CpG binding domain protein 2) | -1.23 | 1.31 | 1.16 | enough cells to score
Jak2 (Janus kinase 2) | 0.7 | 1.88 | 1.4 | enough cells to score
Lenep (lens epithelial protein) | 1.28 | 1.94 | 1.64 | enough cells to score
Zmym5 (zinc finger, MYM-type 5) | -0.24 | 1.45 | 1.45 | enough cells to score
Rusc1 (RUN and SH3 domain containing 1) | 0.17 | 1.47 | 1.22 | enough cells to score
Slfn9 (schlafen 9) | – | 1.23 | 1.24 | fewer than 50 cells per well; well left out of scoring
Rnls (renalase, FAD-dependent amine oxidase) | -0.72 | 1.3 | 1.47 | enough cells to score
Cort (cortistatin) | -0.05 | 1.58 | 1.77 | enough cells to score
Ier5 (immediate early response 5) | -1.54 | 1.4 | 1.24 | enough cells to score
Aadacl2fm1 (AADACL2 family member 1) | 0.12 | 1.45 | 1.53 | enough cells to score
Psmd10 (proteasome (prosome, macropain) 26S subunit, non-ATPase, 10) | 0.09 | 1.16 | 1.23 | enough cells to score
Myl6b (myosin, light polypeptide 6B) | -1.09 | 1.48 | 1.59 | enough cells to score
